# Experimental data as given in PubChem BioAssay AID1508600 (Functional Genomics Laboratory (NCATS/FGL), 2020).
# The whole screen tested about 53,000 sequences, of which about 3,700 (7%) were called active.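 The calls were made as follows: active = gene knockdowns whose robust z-score for IL-1 alpha signal is at least 2 or at most -2, so actives lie on both sides; inactive = the rest.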 The list shows a part of the results.
# Test: Components of the Cytosolic LPS Sensing Pathway: Gene Identification via Genome-wide siRNA Screen;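 also: robust z of the log signal after scaling to non-targeting control siRNA wells of the plate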
# Details: RAW264.7 macrophages, IL-1a HTRF, actives lie on both sides, screened at 100 nM (by protocol), cells primed 5 h with Pam3CSK4 first
# Outline: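 Supernatant IL-1a by HTRF from RAW264.7 cells primed with Pam3CSK4 (5 hours) and transfected with LipidA (24 hour) after 48h siRNA knockdown at 100 nM; cell viability checked with CellTiter-Glo.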
row,Sequence,z-score
1,GGUUGAAGUCACAAAAGAATT against Prkg1,inactive: -0.619
2,GGCAGAAAGUGAAGAGUUGTT against Kazald1,inactive: -0.11
3,GGACGAGGUGGAAAAGUAUTT against Tpm2,inactive: -0.711
4,CCAAUAACUCGAAACUGGCTT against Cdc16,inactive: 0.628
5,GCACAAGUCUAAACAGCUGTT against Fermt1,inactive: 0.494
6,CCUGCUUACGUACAAGACCTT against Tekt1,inactive: -0.568
7,GGAGAAAUUAGGAUUACCATT against Pcdhac2,inactive: -0.666
8,UCCUUGCUGUCCUAACCAUTT against Gpr119,inactive: 1.64
9,CCAACAUGAUUGAGUCUUCTT against Lrp5,inactive: -0.351
10,GGAAAUUCAGCCACAACUCTT against Htr4,inactive: 0.463
11,GGAAUACCUUUCAUCGAUUTT against Ampd2,inactive: -0.0984
12,CCCUCAACCUCCAACCACATT against Ceacam1,active: -2.15
13,GCCUGGCUAGAAAUGUGGUTT against Fpr3,active: 3.19
14,GCUCCAAAAGUCAAGACCGTT against Safb2,inactive: -0.482
15,GGCAACUUGAUUGUAAACUTT against Zic2,inactive: 0.795
16,GGGAUUUCUUAUCCUGAAATT against Erlin2,inactive: 0.271
17,CCGUGAUUUAUUUGGAGUGTT against Tpt1,inactive: 0.218
18,GGAAAGAAUUGAGAUCUAATT against Rhoq,inactive: 0.728
19,CGAUAAAUAACUCAGCAUGTT against Epha6,inactive: 0.647
20,GGAUACAAAAAAUGAAGUCTT against Cbr3,inactive: 0.226
21,CGUCUUACACGGUUCAAAGTT against Tbc1d10a,inactive: 0.809
22,GGCUUUUCCAUCGAUGAGUTT against F2rl1,inactive: -1.08

# Another view of part of the listing above:
row | Sequence | z-score
7 | GGAGAAAUUAGGAUUACCATT against Pcdhac2 | inactive: -0.666
8 | UCCUUGCUGUCCUAACCAUTT against Gpr119 | inactive: 1.64
11 | GGAAUACCUUUCAUCGAUUTT against Ampd2 | inactive: -0.0984
13 | GCCUGGCUAGAAAUGUGGUTT against Fpr3 | active: 3.19
14 | GCUCCAAAAGUCAAGACCGTT against Safb2 | inactive: -0.482
19 | CGAUAAAUAACUCAGCAUGTT against Epha6 | inactive: 0.647

# (list continues)

row,Sequence,z-score
1,CGACUUUCUAAGUCUCAACTT against Hyal1,inactive: 0.663
2,CCAAACUUAAACAUGUUGUTT against Ddx21,inactive: 0.364
3,GGACAAGUACAAGAAGAAGTT against Rfxap,inactive: -0.267
4,GGAUGUCCUGAAAGAAAAATT against H2-M9,inactive: 0.633
5,CGACAAGGGUUCCCUAGAATT against Nkd2,inactive: -0.766
6,GGAAUAAAUAACAUUUCCCTT against Parvg,inactive: 0.839
7,GAGUUCGAUGUUCAGGAGCTT against Ndrg1,inactive: -0.354
8,GCCCGAUUUGGCCUAAGUGTT against Paxx,inactive: 0.71
9,GCAGGGCAAUAUCUUCUACTT against Chst3,inactive: 0.466
10,CCUCAGCGGAGAAGAUGUATT against Adora1,inactive: -1.01
11,AGUGAAGAAAUGUUUGACATT against Raet1b,inactive: -1.08
12,GCGUAAACAUUGUAACAACTT against Pkib,inactive: 1.84
13,GCAUAGGAGAGACCAACAUTT against Zcchc10,active: -2.42
14,CAUCCUAGACCUCCAAGCATT against Smr3a,inactive: -1.64
15,GCACCAAUAGAGUUAGAAATT against Oprk1,inactive: 0.817
16,GGCUUUCCAAAGAUUAGUCTT against Arl1,inactive: -0.541
17,CGAAUGCAACAUGUGAUGUTT against Dcaf13,inactive: -1.07
18,GCAAAGCUACUGUUCACCATT against Agtr1b,inactive: -0.451
19,GGAGAAGAACAGAACAUGATT against Igf2,active: 2.36
20,GGUGAUCUGGGUGUUGAUUTT against Slc25a42,inactive: -1.54
21,GGAAAACUCUACCUUAUUGTT against Kif22,inactive: 1.72
22,GCCUUUAACUCCUACGUAGTT against Plxna4,inactive: -1.58

row,Sequence,z-score
1,GCUACAUCAUGAAAGACCCTT against Cdpf1,inactive: -0.138
2,GGAAGAGAUGGCCAUAUACTT against Abcb1b,inactive: 0.796
3,GCAAUUCUGACAACAGCCUTT against Gpr141b,inactive: -0.489
4,GCGAAGAAGAACCAUCGAUTT against Opalin,inactive: -0.456
5,GGGAGUCAGAGUCAUGUAUTT against Mmrn2,inactive: -1.15
6,CCAGCACUCAAUCCUGUAATT against Olfr305,inactive: -0.57
7,GGAAUACAUAGCACACGGUTT against Apba2,inactive: 1.06
8,GGCAAAAAAUCUCAUUUGUTT against Rock1,inactive: 0.137
9,GCAUGACCAGCAGUUCCUUTT against Itsn1,inactive: 1.55
10,GGCUCUAAAAACAAAUGACTT against Asb4,inactive: -0.659
11,GAAAAUCUUGACACUCCUGTT against Ifna9,inactive: -0.434
12,CCAAACUUUUGUGGAACAGTT against Galnt9,inactive: 0.0294
13,GGACCUUAUGGCUUUGUAGTT against Ier5,inactive: -1.3
14,CCGCAUCUAUGCAGGGCAATT against Coq7,inactive: 1.46
15,GCCACAACUGUCAACAUAGTT against Exosc8,inactive: -0.905
16,GCACAAGAAAUCGAAUAUGTT against Acr,inactive: -0.00119
17,GGCUCAGUCAGUGACUGUATT against Erf,inactive: 0.965
18,GCUGACAACUGAUGGGAAGTT against Larp7,inactive: 1.05
19,GGUAGGUUAAAGAGACUUUTT against Msx1,inactive: -0.106
20,GCUAUUCGUUUCUUAUAACTT against Slc19a3,inactive: 0.83
21,GCUAGACUUCUUUGUGCGATT against Abhd8,inactive: 0.656
22,GGUACCCAGCGAUCAUGCATT against Olfr1370,inactive: -0.109

row,Sequence,z-score
1,CCCAAAUAACAGAGAAAUGTT against St8sia6,inactive: 0.818
2,GGUAUGAGCAACCUAAGUGTT against Smoc2,inactive: -1.3
3,GCUGGAAAAAAAGUUGGAUTT against Diaph1,inactive: -1.29
4,GGAAAGUCAAUCAGAAAAUTT against Dars,inactive: 0.668
5,GCUGUCUGAUUCUGAGGUGTT against Slc6a1,active: 2
6,GCAUCCUAAAGGAGACGCATT against Ccdc102a,inactive: 0.848
7,GGCAUGGAUUGGUGAGAUUTT against 9330175E14Rik,inactive: -0.576
8,GGUUUUUUAACAGAGAUCCTT against Hipk1,inactive: -0.684
9,GGUAGUGGCUAAUGCUGUGTT against Tepsin,inactive: -0.0468
10,GGAGGAUUCCCUCUAUAUUTT against Slc33a1,inactive: 0.118
11,GGGUUAUGGCUGGAAUCUGTT against Slc12a9,inactive: -1.52
12,GGACUGCACCUUUUGGCAUTT against Tlr11,inactive: -0.329
13,GGUGACUGUCCUGAACUAUTT against Prr5l,inactive: 1.7
14,GGAAGUAUUUCACAUGUGATT against Dctn1,inactive: -0.299
15,GCCCUUUGGCAAUGUGAGATT against Opn1mw,inactive: -0.378
16,CGAACCUCCAGUUAUUAGUTT against Chfr,inactive: 0.8
17,GGAAAAGAAAGGUCCUGAGTT against Klc3,inactive: -0.608
18,CGCAGGACAUUUGGUUUUGTT against Ssxb2,active: 2.88
19,CCGUGGUAUCAAUGAUUGGTT against Hhatl,inactive: 1.08
20,CGACAACGAUAAGUUUGAATT against Fgg,inactive: -1.62
21,GGAAGAAGCAGCAAGAAGATT against Ttc39b,active: -2.16
22,GGUGAAGGUACGAGUAAGATT against Prkra,inactive: -0.809

row,Sequence,z-score
1,GGAGACAGAAUGCACAUUUTT against Tff3,inactive: -0.888
2,GGCAUGUAAUGAAUUCACATT against Pbx3,active: -2.14
3,GGCCACUCAAUAUCAACGATT against Apaf1,inactive: 0.168
4,GGAACUUAAGAACUUUCUATT against Calb1,active: 2.3
5,GGGCUUCGAUGGAACUCCUTT against Col4a3,inactive: -0.368
6,GCCACUUCCGCAUAAUUGGTT against Setbp1,inactive: -0.935
7,CCCAUCCUGUAUCCACUAATT against Mlf2,inactive: -1.44
8,GGUCCAUGCUCUCAUGAGUTT against Batf2,inactive: -1.34
9,CCACAAUGUUACCCAGAAUTT against Adgrg2,inactive: 0.441
10,GGGAAUGAACCUAGAAGAGTT against Tymp,inactive: -1.2
11,GGAUGCUGUUCGAGCUCAUTT against Cc2d1b,inactive: -0.537
12,GCAACGGACUUCCUCUCACTT against Tbck,inactive: 0.696
13,CCACAGUCUAUUCAAACUUTT against Ncapd3,inactive: -1.12
14,GGAACCUAUUGAAUCUGGGTT against Plpp7,inactive: 1.46
15,GGUGUGUUAAGGUUUUUAATT against Marchf1,active: 3.68
16,GGAUGCUUACGGGAGACGATT against Tmem9,inactive: -0.595
17,GGCUUGCCUUUUUUGCUAUTT against Olfr1404,inactive: 0.781
18,GGGCAAUGGAAGAAUUCCUTT against BC030500,inactive: -1.69
19,GGUUAUUGAUGUGACGAUGTT against Rem2,inactive: 1.36
20,GAGUGCUAAGUAGGAAAGGTT against Olfr33,inactive: -0.424
